Paper PMC7211019
Results are given in words; binding and its absence hold for the method and conditions named. Some binding calls cover weakened binding; strength is not graded here.

Sequences of proteins named here, by UniProt entry; tags and fusion partners are left off. Residues count along the entry.
UniProt Q9Z340, residues 582-685: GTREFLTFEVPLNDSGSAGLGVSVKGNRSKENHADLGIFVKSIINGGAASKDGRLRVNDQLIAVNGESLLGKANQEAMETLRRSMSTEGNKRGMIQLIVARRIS

Target: T1, FITC-labeled Par6γ PBM peptide (mouse)
T1 sequence (peptide, FITC label (position not stated)): VEEHGPAITL
Test: fluorescence polarisation; FITC-labeled peptide (~1 μM) titrated with Par3 PDZ domains, 25 °C, buffer A (50 mM Tris pH 8.0, 100 mM NaCl, 1 mM EDTA, 1 mM DTT); both purified

**Q.** “Par3 PDZ3 (from UniProt Q9Z340 582-685) (domain or fragment)” was tested. Which binding did it give?
**A.** The binding was “binds”.
